Assay: Recrystallization of applied saturated drug solution during the permeation experiment
Type: physicochemical
Conditions: applied crystal-free
Method: […] of this solution was given on heat-separated human epidermis (breast, area 4.5 cm^2) which was mounted on a Franz-diffusion cell. The cell was filled with 23 ml of a mixture of 60 parts of a 0.9% NaCl-solution and 40 parts of polyethylene glycol 400 (v/v). At the sampling times the receptor fluid is completely renewed and analyzed for nimodipine content.

COC(=O)C1=C(C)NC(C)=C(C(=O)OC)C1c1ccccc1[N+](=O)[O-] [Nifedipine]
recrystallization during the experiment: recrystallization

From patent US6106856A, “Transdermal delivery of calcium channel blockers, such as nifedipine” (The Board of Governors for Higher Education, State of Rhode …, priority 1995, dated 2000)
